Reference: doi:10.1101/2020.12.04.411520

By UniProt entry, the sequences of proteins in these tests, tags left out. Residues count along the entry.
UniProt Q21281, residues 16-2104: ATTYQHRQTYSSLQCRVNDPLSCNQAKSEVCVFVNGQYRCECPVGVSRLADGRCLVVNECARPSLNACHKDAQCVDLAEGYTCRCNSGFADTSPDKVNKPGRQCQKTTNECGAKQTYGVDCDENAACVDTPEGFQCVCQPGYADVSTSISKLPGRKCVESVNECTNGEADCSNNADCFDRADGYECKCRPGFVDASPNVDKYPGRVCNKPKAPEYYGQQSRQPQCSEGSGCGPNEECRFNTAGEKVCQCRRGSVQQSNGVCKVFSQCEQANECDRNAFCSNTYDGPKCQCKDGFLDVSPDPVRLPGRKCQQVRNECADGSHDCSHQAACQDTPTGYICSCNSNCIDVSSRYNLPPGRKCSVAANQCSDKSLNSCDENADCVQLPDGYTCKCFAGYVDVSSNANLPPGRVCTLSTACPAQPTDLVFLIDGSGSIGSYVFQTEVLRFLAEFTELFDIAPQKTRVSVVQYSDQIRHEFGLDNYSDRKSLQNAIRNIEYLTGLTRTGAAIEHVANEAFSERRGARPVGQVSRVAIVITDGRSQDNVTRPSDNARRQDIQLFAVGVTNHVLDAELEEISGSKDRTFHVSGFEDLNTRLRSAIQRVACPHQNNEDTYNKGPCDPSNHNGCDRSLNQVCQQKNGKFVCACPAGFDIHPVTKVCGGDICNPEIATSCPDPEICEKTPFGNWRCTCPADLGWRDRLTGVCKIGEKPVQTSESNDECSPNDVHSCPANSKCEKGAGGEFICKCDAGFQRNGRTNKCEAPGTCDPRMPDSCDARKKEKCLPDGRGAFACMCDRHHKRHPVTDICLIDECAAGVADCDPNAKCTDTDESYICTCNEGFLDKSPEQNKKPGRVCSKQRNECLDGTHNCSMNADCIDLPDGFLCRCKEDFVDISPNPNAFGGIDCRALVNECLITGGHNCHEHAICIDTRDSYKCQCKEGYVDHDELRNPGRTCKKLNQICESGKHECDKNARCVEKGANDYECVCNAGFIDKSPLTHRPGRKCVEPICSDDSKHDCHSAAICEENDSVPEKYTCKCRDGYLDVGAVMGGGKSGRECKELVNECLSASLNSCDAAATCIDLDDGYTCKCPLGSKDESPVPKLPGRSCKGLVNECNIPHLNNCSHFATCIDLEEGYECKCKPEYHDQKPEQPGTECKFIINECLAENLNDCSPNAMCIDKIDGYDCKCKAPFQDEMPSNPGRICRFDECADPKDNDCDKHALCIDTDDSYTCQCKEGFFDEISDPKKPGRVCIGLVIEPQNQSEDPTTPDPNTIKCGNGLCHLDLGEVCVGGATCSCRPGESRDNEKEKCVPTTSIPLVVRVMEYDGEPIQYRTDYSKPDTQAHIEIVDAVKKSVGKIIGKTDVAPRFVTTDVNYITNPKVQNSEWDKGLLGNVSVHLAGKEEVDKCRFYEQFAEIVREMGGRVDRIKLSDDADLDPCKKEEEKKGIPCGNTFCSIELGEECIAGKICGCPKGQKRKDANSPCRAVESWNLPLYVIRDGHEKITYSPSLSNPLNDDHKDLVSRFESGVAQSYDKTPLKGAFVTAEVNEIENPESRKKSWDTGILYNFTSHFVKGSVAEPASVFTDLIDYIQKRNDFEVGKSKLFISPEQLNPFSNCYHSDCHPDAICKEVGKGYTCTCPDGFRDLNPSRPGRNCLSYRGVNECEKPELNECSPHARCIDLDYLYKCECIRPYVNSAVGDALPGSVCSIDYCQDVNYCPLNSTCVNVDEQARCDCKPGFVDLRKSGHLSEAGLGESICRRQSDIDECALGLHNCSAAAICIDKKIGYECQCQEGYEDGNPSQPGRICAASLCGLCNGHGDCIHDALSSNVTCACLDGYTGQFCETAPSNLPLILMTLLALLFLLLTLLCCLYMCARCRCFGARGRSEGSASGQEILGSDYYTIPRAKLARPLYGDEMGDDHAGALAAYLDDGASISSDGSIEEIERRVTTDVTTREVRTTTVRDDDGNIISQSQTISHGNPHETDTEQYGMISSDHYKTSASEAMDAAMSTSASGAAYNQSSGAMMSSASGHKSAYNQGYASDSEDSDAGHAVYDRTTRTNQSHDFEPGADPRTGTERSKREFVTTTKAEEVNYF
UniProt P12845: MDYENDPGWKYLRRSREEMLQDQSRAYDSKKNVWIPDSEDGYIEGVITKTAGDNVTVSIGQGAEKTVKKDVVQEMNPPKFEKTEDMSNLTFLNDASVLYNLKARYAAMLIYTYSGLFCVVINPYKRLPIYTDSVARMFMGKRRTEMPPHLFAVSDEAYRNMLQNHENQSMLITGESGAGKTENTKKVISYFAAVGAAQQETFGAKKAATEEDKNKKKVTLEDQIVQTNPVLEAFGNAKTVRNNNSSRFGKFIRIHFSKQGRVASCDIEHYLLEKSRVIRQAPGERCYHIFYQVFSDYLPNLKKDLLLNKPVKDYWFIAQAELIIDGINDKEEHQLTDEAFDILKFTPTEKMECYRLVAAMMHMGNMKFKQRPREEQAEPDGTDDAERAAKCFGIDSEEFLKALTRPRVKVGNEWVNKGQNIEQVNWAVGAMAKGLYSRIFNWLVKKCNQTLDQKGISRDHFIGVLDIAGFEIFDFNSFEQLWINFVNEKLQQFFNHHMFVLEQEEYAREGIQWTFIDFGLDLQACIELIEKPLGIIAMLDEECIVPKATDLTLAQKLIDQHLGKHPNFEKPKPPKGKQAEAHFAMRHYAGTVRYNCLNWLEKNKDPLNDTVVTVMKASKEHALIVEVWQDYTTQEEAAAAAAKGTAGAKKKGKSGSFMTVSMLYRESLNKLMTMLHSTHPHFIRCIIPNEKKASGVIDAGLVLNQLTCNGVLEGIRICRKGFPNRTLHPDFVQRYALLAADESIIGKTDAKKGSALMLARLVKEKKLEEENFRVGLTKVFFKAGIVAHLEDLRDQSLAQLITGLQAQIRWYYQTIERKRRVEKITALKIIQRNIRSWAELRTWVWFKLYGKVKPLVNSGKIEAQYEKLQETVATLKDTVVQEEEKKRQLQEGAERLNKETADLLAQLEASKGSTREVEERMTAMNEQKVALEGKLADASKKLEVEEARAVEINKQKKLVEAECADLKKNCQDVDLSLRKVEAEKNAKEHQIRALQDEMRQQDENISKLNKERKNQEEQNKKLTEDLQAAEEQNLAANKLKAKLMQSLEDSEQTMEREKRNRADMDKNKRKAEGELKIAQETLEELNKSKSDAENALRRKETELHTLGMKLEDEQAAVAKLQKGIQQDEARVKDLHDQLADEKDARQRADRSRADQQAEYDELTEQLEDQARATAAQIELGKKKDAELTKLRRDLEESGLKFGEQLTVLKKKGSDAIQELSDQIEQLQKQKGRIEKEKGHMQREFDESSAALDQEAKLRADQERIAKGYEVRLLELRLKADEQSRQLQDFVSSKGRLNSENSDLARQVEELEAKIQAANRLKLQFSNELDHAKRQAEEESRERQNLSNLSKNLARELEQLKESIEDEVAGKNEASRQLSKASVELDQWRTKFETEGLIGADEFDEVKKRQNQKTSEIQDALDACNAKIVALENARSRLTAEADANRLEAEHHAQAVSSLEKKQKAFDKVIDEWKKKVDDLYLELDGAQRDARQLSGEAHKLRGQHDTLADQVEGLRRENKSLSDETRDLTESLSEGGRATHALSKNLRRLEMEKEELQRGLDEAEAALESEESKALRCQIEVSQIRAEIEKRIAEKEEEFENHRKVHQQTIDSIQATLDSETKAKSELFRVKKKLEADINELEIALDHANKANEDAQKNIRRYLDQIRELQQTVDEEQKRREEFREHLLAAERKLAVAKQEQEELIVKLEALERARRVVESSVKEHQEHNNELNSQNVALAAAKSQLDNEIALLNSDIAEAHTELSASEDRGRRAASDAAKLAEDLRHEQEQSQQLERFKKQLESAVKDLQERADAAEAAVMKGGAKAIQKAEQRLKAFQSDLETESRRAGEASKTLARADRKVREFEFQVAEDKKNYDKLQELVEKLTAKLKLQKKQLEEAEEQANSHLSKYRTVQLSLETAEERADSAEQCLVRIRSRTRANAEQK
UniProt P10567: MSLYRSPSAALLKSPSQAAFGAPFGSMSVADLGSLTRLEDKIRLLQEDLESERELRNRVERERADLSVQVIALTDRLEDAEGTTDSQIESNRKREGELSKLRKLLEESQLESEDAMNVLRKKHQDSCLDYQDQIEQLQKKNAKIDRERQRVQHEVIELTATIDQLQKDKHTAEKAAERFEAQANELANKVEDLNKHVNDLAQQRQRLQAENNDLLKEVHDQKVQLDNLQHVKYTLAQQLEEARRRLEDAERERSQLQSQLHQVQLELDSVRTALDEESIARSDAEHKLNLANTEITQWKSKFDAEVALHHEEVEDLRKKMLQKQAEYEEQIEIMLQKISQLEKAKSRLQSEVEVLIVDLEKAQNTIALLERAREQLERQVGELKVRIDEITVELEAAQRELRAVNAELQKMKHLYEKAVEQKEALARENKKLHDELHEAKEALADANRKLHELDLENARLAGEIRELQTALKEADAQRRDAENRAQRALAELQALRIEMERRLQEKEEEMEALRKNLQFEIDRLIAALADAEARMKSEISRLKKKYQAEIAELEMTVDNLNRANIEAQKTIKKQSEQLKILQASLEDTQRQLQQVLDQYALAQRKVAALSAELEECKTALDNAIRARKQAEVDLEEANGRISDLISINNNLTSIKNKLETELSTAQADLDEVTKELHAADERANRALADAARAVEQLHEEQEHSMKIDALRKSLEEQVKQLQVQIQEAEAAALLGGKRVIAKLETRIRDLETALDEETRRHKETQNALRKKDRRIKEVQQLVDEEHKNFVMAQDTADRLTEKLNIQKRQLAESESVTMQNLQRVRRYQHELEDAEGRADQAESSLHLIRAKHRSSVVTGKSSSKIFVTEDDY
UniProt P34462: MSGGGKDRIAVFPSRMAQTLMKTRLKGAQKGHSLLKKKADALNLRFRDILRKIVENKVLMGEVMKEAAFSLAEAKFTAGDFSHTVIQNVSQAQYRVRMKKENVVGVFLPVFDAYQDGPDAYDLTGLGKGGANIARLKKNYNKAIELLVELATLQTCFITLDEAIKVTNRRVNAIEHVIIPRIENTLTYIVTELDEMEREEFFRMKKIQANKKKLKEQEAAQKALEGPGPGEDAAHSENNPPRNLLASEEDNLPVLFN
UniProt Q9Y5K8: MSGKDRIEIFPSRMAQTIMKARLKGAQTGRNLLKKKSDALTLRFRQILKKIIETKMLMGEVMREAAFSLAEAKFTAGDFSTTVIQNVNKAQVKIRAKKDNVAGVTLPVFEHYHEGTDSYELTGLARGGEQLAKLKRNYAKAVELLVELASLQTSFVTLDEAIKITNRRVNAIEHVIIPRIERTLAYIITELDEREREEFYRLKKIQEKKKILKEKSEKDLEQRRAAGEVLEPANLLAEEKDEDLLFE
UniProt Q16864: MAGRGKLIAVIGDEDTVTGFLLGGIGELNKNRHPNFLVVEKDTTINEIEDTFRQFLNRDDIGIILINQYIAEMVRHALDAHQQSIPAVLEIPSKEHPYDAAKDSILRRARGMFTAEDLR

B1: PAT-12 (protein, UniProt Q95QA6 1-663)
chain: MTSHIATETSVNRWSTEPVVREEGRPPGPEDFPSTKQGREQDGNVIGITPNYKIGEQKPNSELNLGKTGSLPRGSGDYKMTYRQEDYKQTIIDPKVITNANMPYISTRIPDPRRNLAGDFPSEHSKSKIKLDPLEQRRFRSSESRPITTSNYLAESVDRHREMEASRLREYLKAKENEANQPWNKPGWPGPKKNDESLRELETMKQRIETLKRDANKGPVNAELDELSKRAEELRKRDGWSKYKLVESDIYKTDPDPMPANIKDQVRDLLESRNSVETTTTQRDHDKSGYVTDVSTATWNFSTVDYSPRSVVSMNGASHDILKDDKPRSIMKRNDLVRREQMLYPTVDTQVVKSVVKKPTVTETVQRFEETRRTEEVERRVQRREKKERRSRHHSSSRHHSGWEGHTGGYQGHRSSSLSRGGHGGGGQETYYRQETTRRQQHNNYDDNFNRGIAHARYGSLSDSLRRGELQYVPNGEVRQSFYRDGSNGGQRMHKSYSTRDVFTGDGYDDRRSVSSFRRGSQQQVSPFVEFPPTLPRRGGGGDYRREEDAYFRPVSKSRSYADWDDAGRAGMGREVRRYDDDMSRLEAEFRDSLLMPMPAGNMNERDHRTEQLPGGYETFNKERHANSGRRSGRDGKPVDFNEATQEYNYKREQTLNDDRRRR
B2: IFA-1 (protein, UniProt P90901 1-575)
chain: MMEITRETMSFTSTTPSARAPLGGRTTGNVTSQDRMLKIVTEMRSGAGSGLSPFGQNAASTIRDSREREKKEMSDLNDRLASYIEKVRFLEAQNRKLAADLDALRSKWGKDTHNIRNMYEGELVDAQKLIDETNKQRKDMEGQLKKMQDELAEMRRKLEDATKGREQDRAKIDALLVTLSNLEAEISLLKRRIAQLEDEVKRIKQENQRLLSELQRARTDLDQETLNRIDYQNQVQTLLEEIDFLRRVHDNEIKELQTLASRDTTPENREFFKNELSSAIRDIREEYDQVNNVHRNDMESWYRLKVQEIQTQSARQNMEQGYAKEEVKRLRTQLSDLRGKLADLESRNSLLEKQIQELNYQLEDDQRSYEAALNDRDSQIRKMREECQALMVELQMLLDTKQTLDAEIAIYRKMLEGEENRAGLKQLVEQVVKTHAITQETDTETMRVVKGETASRQSFQRSAKGNVSIHEASPDGKFIVLQNTHRAKDEAIGEWKLKRRIDGKRENVYTLPRDFVLRAGKTLKIFARNQGVASPPDQLVYDAEDSFGSGNNVQTILFNKEGEERATHIQRQSTA
B3: MUA-6/IFA-2 (protein, UniProt O02365 1-581)
chain: MTDPDSYRSSITSRPSFNRTVTSSSQNYGAPGSGNRVLKIVTETHSSSVSSGLSPYGQNAASTIRDNREREKKEIMELNDRLASYIEKVRFLDAQNRKLDADLKMLQGRFGKSTGSVKVMYEMEITTATNVVKQTGKDHGETEKEIRKLQDQLDELRKKFEEAQRGRAEDRLKIDDLLVTLSNLEAEINLLKRRIALLEEEVARLKKENFRLTSELQRVRIELDQETLLRIDNQNKVKTILEEIDFMKRGFETELKELQAQAARDTTSENREYFKNELANAMRDIRAEYDQIMNGNRNDMESWYQLRVQEINTQSNRQNAENNYQKEEVKRLRNQTSELRQKLSDLESRNLLLEKQIEDLNYQLEDDQRSYEAALNDKDAQIRKLREECQALMVELQMLLDTKQTLDGELKVYRQMLEGNSEGNGLRQLVEKVVRTSAINEEADTETMRVVKGEHSSRTSYQRSAKGNVAIKETSPEGKFVILENTHRAKEEPLGDWKLKRKIDGKREIVFTFPSDYILHPFQSVKIFARGQGIANPPEVLIFEGDETFGVGANVQTILYNNKGEERATHIQRQSQQTTSS
B4: IFA-3 (protein, UniProt Q21065 1-581)
chain: MADPDSYRSSITSRPAFNRTVTSSTQNYGTPASGNRVLKIVTETHTSSVASGLSPYGQGAASTIRDDREREKKEITELNDRLASYIGKVRFLAAQNRKLEADLNVLQSRFGKSTGSVKIMYEMEITTATNVVKETGKDHEEAEKEIGKIKDQLDELRKKFEEAQKGRAEDRLKIDELLVTLSNLEAEINLLKRRIALLEEEVARLKKENFRLTSELQRVRSELDQETLLRIDNQNKVTTILEEIDFMKRGFETELKDLQAQAARDTTSENREYFKNELMNSIRDIRAEYDRFMAGNRNDLESWSQIRVQEINTQTNRQNAEINHKRDEVKRLHSQVSELKSKHAELAARNGLLEKQLEDLNYQLEDDQRSYEAALNDKDAQVRKLREECQALLVELQMLLDTKQTLDGELKVYRRMLEGNSEENGLRQLVEKVVRTSAINEEVDTETMRVVKGEHSSRTSYQRSAKGNVSIKEVSPEGKFVILENTHRDKEEPLGDWKLKRKIDGKREIVFTFPSDYILHPVQTVKIFARGNGVANPPEVLVFEGDDTFGAGANVQTILYNNSGEERATHMQRQSQQTTTS
B5: IFA-4 (protein, UniProt P90900 1-575)
chain: MSESEYRSSISVRPTFNRTMQSTATYGSTISSGTSRTLKITEIGGSNLTSGMSPFGGHAASAIRESRTREKKEMSELNDRLASYIEKVRFLEAQNRKMEKDLNLLRGKWGHDSTSVKVMYETELRSAKDLIADSDKERAQLEDQIKKLVEELNNYRNKLHEAERGADVTRKELDNVLGRLGALEAEIELLKRRISLMEESIGHLKRENHRMIDSLHHARNAVEQETLNRIDYQNQVQTLLEECDFIRRIHDSEIHDLLAMASRDTTVENREYFKNELSSAIREIRSEYDHVSNTTRTDIESWYKLKVQEIHTQNSRNCLEQNYAREEVKRLRTTLGDMRGKMADLEGRNLLLEKQIEDLNYQMEEDMRSYEQSLNDKDTSINKLRDESKILMVELQMLIDTKQTLDAEIVIYRKMLDGEENRAGLRQLVEQVVKTTSIHQTKEIESLRVLKGETTSHSSYSRSAKGNIAIQEAEPSGKYIVLENISRRDENIGDWKLRRKIAGKREIVFTFPREFTLRAQKSVKIFARGQGVHSPPDSLVYDLEDSFGTGNDVVTTLYNKEGEDRASHSQRASHT
B6: IFB-1 (protein, UniProt Q19289 1-589)
chain: MSSHKESSEYEMQYRSTIQPRTAVRSQSRQSGNYVSGGNGAGSGGRVLKMVTEMGSATVGGISPALSANAAKSFLEATDKEKKTLQGLNDRLGNYIDRVKKLEEQNRKLVADLDELRGKWGKDTSEIKIKYSESLSTARKDIDDAARRKAEVDVKVARHRDDLAEYRSRYEDIQQRRESDREKISQWTNAIADAQSEVEMLRARFKQLTDEEKRVTADNSRIWEELQKARSDLDDETIGRIDFQNQVQTLMEELEFLRRVHEQEVKELQALLAQAPADTREFFKNELALAIRDIKDEYDIIAKQGKQDMESWYKLKVSEVQGSANRANMESTYQRDEVKRMRDNIGDLRGKLGDLENKNSLLEKEVQNLNYQLTDDQRQYEAALNDRDATLRRMREECQTLVAELQALLDTKQMLDAEIAIYRKMLEGEETRVGLTQMVEQAVKTHSLQQQENTDSTRSVRGEVSTKTTFQRSAKGNVTISECDPNGKFIKLENSHRNKDENVGEHKIRRKLDGRREIVYSIPANVVIKPGKNLTIYARDQGGINNPPESLVFDGENTWGIGANVVTSLVNKDGEERATHTQKTIQSGQ
B7: VHA-9 (protein, UniProt Q23680 1-121)
chain: MASAAKGKILAVIGDEDTVVGFLLGGVGELNKARKPNYLIVDKQTTVQEIEEAFNGFCARDDIAIILINQHIAEMIRYAVDNHTQSIPAVLEIPSKEAPYDPSKDSILNRARGLFNPEDFR

Molecular target: T1, GFP::BBLN-1 (C. elegans) (UniProt Q18012)
T1 sequence: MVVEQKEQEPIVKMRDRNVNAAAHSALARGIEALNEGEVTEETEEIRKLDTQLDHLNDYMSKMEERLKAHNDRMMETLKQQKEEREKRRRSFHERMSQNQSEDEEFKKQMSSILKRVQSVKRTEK
Assay: affinity purification with mass spectrometry

binding, binds:
FLN-2, LET-805, MUP-4 (from UniProt Q21281 16-2104), MYO-2 (from UniProt P12845 1-1947), UNC-15 (from UniProt P10567 1-872), VAB-10, VHA-14 (from UniProt P34462 1-257), B1, B2, B3, B4, B5, B6, B7

Molecular target: T2, BioGFP::BBLN (human) (UniProt Q9BUW7)
T2 sequence (chain, biotin (Bio tag, BirA co-expressed)): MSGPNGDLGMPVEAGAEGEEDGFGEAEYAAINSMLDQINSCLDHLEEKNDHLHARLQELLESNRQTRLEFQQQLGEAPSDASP
Assay: affinity purification with mass spectrometry

binding, binds:
V-ATPase subunit D (ATP6V1D) (from UniProt Q9Y5K8 1-247), V-ATPase subunit F (ATP6V1F) (from UniProt Q16864 1-119)

No constants are given. Whether binding was seen depends on the method and setting. In cells and extracts the contact can be indirect. Here binding means that the protein was enriched with, or labelled near, the bait; the list need not be complete. Where a sequence is shown, tags or fusion partners need not be part of it.
